Experimental data published in US20210023223A1, “HYDROCARBON / LIPID - CAROTENOID COMPLEXES” (IP SCIENCE LIMITED, priority 2018, published 2021).

Tests used:
[1] = Cooking time of wild salmon at 180° C.; settings: for Cooking time for the wild salmon: control 24 minutes
[2] = Vitamin B12 in cooked wild salmon

Row | Compound | Reduction of cooking time for the wild salmon [1] | Cooking time for the wild salmon [1] | Vitamin B12 level in cooked fish vs control olive oil [2]
1 | CC1=C(/C=C/C(C)=C/C=C/C(C)=C/C=C/C=C(C)/C=C/C=C(C)/C=C/C2=C(C)C(=O)[C@@H](O)CC2(C)C)C(C)(C)C[C@H](O)C1=O [Astaxanthin, astaxanthin] | 40% | 14 min | did not translate to any significant preservation
2 | CC(C)=CCC/C(C)=C/C=C/C(C)=C/C=C/C(C)=C/C=C/C=C(C)/C=C/C=C(C)/C=C/C=C(\C)CCC=C(C)C [Lycopene] | 40% | 14 min | 15 fold
